{"source": "PubChem BioAssay AID1671195, Yale University, 2021", "screen": "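Knockdowns that increase or decrease uptake of fluorescent LDL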 (primary screen)", "system": "human Huh7 hepatoma cells", "reagent": "siRNA pool against human genes, 18 nM", "duration": "about 2 to 2.5 days of knockdown, then 8 h LDL uptake", "treatment": "DiI-labelled LDL at 30 µg/ml for 8 h, in lipoprotein-deficient serum medium", "measurement": "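Per-cell DiI-LDL intensity by automated imaging; well means scaled to the plate median and given as a robust z-score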", "direction": "robust z-score: higher = more LDL uptake after knockdown", "hit rule": "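a gene counts as active if at least two replicate z-scores exceed ±2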", "note": "In all, the deposit lists about 22,000 reagents; below is a part drawn at random. In the full data, about 1,510 (6.9%) were called active. 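Active includes knockdowns raising or lowering LDL uptake; positive z-scores mean more uptake, negative mean less.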 A number with no mark means an inactive call."}
{"target": "UPB1", "robust z-score, replicate 1": "2.58 (active)", "robust z-score, replicate 2": 4.64, "robust z-score, replicate 3": 4.44}
{"target": "LUM", "robust z-score, replicate 1": 0.146, "robust z-score, replicate 2": -0.641, "robust z-score, replicate 3": 0.67}
{"target": "RAVER1", "robust z-score, replicate 1": 1.27, "robust z-score, replicate 2": 0.568, "robust z-score, replicate 3": 0.978}
{"target": "SERPINB8", "robust z-score, replicate 1": -0.698, "robust z-score, replicate 2": -0.692, "robust z-score, replicate 3": 1.09}
{"target": "VSTM4", "robust z-score, replicate 1": -0.815, "robust z-score, replicate 2": -1.26, "robust z-score, replicate 3": -0.995}
{"target": "KALRN", "robust z-score, replicate 1": 0.0972, "robust z-score, replicate 2": 1.53, "robust z-score, replicate 3": 0.639}
{"target": "TYR", "robust z-score, replicate 1": 0.492, "robust z-score, replicate 2": 0.3, "robust z-score, replicate 3": -0.196}
{"target": "LARS2", "robust z-score, replicate 1": 0.474, "robust z-score, replicate 2": -0.611, "robust z-score, replicate 3": -0.197}
{"target": "ZNF354C", "robust z-score, replicate 1": 0.00406, "robust z-score, replicate 2": 0.848, "robust z-score, replicate 3": 0.0461}
{"target": "TNFSF14", "robust z-score, replicate 1": 0.118, "robust z-score, replicate 2": 3.11, "robust z-score, replicate 3": 0.986}
{"target": "SP1", "robust z-score, replicate 1": -0.877, "robust z-score, replicate 2": -0.571, "robust z-score, replicate 3": -0.871}
{"target": "AMACR", "robust z-score, replicate 1": 0.488, "robust z-score, replicate 2": 1.28, "robust z-score, replicate 3": 0.49}
{"target": "AP5S1", "robust z-score, replicate 1": -0.944, "robust z-score, replicate 2": 1.33, "robust z-score, replicate 3": 0.0494}
{"target": "LINC02072", "robust z-score, replicate 1": "2.25 (active)", "robust z-score, replicate 2": 2.53, "robust z-score, replicate 3": 1.43}
{"target": "USP30", "robust z-score, replicate 1": -0.304, "robust z-score, replicate 2": 0.298, "robust z-score, replicate 3": 0.36}
{"target": "LOC440975 (retired record)", "robust z-score, replicate 1": 1.12, "robust z-score, replicate 2": 1.31, "robust z-score, replicate 3": 1.14}
{"target": "LOC387884 (retired record)", "robust z-score, replicate 1": 0.564, "robust z-score, replicate 2": 0.912, "robust z-score, replicate 3": 0.638}
{"target": "SLFNL1", "robust z-score, replicate 1": -0.329, "robust z-score, replicate 2": -0.496, "robust z-score, replicate 3": 0.0322}
{"target": "GMFB", "robust z-score, replicate 1": "2.81 (active)", "robust z-score, replicate 2": 1.73, "robust z-score, replicate 3": 2.73}
{"target": "TRIM3", "robust z-score, replicate 1": -0.335, "robust z-score, replicate 2": -0.562, "robust z-score, replicate 3": -0.888}
{"target": "MTFR1", "robust z-score, replicate 1": -0.179, "robust z-score, replicate 2": -0.169, "robust z-score, replicate 3": -0.67}
{"target": "TXNIP", "robust z-score, replicate 1": 0.119, "robust z-score, replicate 2": -0.619, "robust z-score, replicate 3": 1.22}
{"target": "IGF2-AS", "robust z-score, replicate 1": -0.157, "robust z-score, replicate 2": -0.356, "robust z-score, replicate 3": -0.243}
{"target": "NEMP1", "robust z-score, replicate 1": -0.575, "robust z-score, replicate 2": -1.25, "robust z-score, replicate 3": -1.43}

Records above whose target name starts with A or a (2):
{"target": "AMACR", "robust z-score, replicate 1": 0.488, "robust z-score, replicate 2": 1.28, "robust z-score, replicate 3": 0.49}
{"target": "AP5S1", "robust z-score, replicate 1": -0.944, "robust z-score, replicate 2": 1.33, "robust z-score, replicate 3": 0.0494}
